Common to all, as to assay type: cell-based
One assay concerns MCF-7. In words: Cell growth, sulforhodamine B. The following applies: Homo sapiens, MCF7, 72 h, read-out: IC50 growth inhibition.
Another assay concerns MDA-MB-231. Nature of the assay: Cell growth, sulforhodamine B. Conditions: Homo sapiens, MDA-MB-231, 72 h, read-out: IC50 growth inhibition.
A further assay has as its system T47D. Nature of the assay: Cell growth, sulforhodamine B. The following applies: Homo sapiens, 72 h, read-out: IC50 growth inhibition.
The next assay concerns PC3. In words: Cell growth, sulforhodamine B. The following applies: Homo sapiens, PC-3, 72 h, read-out: IC50 growth inhibition.
The next assay relates to LNCaP. In words: Cell growth, sulforhodamine B. Conditions: Homo sapiens, 72 h, read-out: IC50 growth inhibition.
Another assay concerns ZR-75-1. Nature of the assay: Cell growth, sulforhodamine B. The following applies: Homo sapiens, ZR-75-1, 72 h, read-out: IC50 growth inhibition.
Another assay deals with BT474. In words: Cell growth, sulforhodamine B. The following applies: Homo sapiens, BT-474, 72 h, read-out: IC50 growth inhibition.
The subject of the next assay is NCI-460. In words: Cell growth, sulforhodamine B. The following applies: NCI-460, 72 h, read-out: IC50 growth inhibition.
A further assay has as its system A549. Nature of the assay: Cell growth, sulforhodamine B. The following applies: Homo sapiens, A549, 72 h, read-out: IC50 growth inhibition.
For a further assay, the system named is U2OS. In words: Cell growth, sulforhodamine B. Conditions: Homo sapiens, 72 h, read-out: IC50 growth inhibition.
The subject of a further assay is HCT-116 (p53-/-). Nature of the assay: Cell growth, sulforhodamine B. Conditions: Homo sapiens, HCT-116, 72 h, read-out: IC50 growth inhibition.
The next assay relates to HepG2. Nature of the assay: Cell growth, sulforhodamine B. The following applies: Homo sapiens, HepG2, 72 h, read-out: IC50 growth inhibition.
The next assay has as its system COLO-205. In words: Cell growth, sulforhodamine B. The following applies: Homo sapiens, COLO 205, 72 h, read-out: IC50 growth inhibition.
The test system of another assay is HCT-116. In words: Cell growth, sulforhodamine B. The following applies: Homo sapiens, HCT-116, 72 h, read-out: IC50 growth inhibition.
The subject of assay [1] is panel of cell lines representing a range of tumour types. Nature of the assay: Cell growth, SRB assay, whole panel. Conditions: 72 h, read-out: IC50 values, range over all cell lines tested. (In general: The SRB assay estimates cell density from bound dye.)
The next assay concerns BT20. In words: Cell growth, sulforhodamine B. Conditions: Homo sapiens, BT-20, 72 h, read-out: IC50 growth inhibition.
In a further assay the test system is MCF-10A. In words: Cell growth, sulforhodamine B. The following applies: Homo sapiens, 72 h, read-out: IC50 growth inhibition.
The next assay relates to HMEC. Nature of the assay: Cell growth, sulforhodamine B. The following applies: Homo sapiens, 72 h, read-out: IC50 growth inhibition.

As for `CC[C@H](CO)Nc1nc(NCc2ccccc2)c2ncn(C(C)C)c2n1` [Roscovitine, roscovitine, reference compound], the concentration for half-maximal inhibition (IC50) (in general, the concentration needed to halve the response being measured) is 13 µM with MCF-7; 18 µM with MDA-MB-231; 25 µM with T47D; 10.8 µM in the assay on PC3; 8.4 µM in the assay with LNCaP; 33.5 µM in the assay on ZR-75-1. Further, the half-inhibitory concentration (IC50) turned out to be 30.5 µM in the assay on BT474; 9.5 µM with NCI-460; 17 µM in the assay with A549; 10.5 µM in the assay on U2OS; 8 µM with HCT-116 (p53-/-); 12.3 µM in the assay on HepG2. The IC50 with COLO-205 is 8 µM; in the assay with HCT-116, 17.5 µM; in [1], 8 to 33.5 µM; in the assay with BT20, 32.5 µM; with MCF-10A, 12.5 µM; in the assay on HMEC it was 20.5 µM.
